Data reported in PMC7136964.
No constants are given. Whether binding was seen depends on the method and setting. In cells and extracts the contact can be indirect. Some results given as binding are weak or reduced against the parent protein; the word gives no strength.

Protein sequences, listed by entry. Tags and fused reporters are not part of them.
UniProt Q9UHP3: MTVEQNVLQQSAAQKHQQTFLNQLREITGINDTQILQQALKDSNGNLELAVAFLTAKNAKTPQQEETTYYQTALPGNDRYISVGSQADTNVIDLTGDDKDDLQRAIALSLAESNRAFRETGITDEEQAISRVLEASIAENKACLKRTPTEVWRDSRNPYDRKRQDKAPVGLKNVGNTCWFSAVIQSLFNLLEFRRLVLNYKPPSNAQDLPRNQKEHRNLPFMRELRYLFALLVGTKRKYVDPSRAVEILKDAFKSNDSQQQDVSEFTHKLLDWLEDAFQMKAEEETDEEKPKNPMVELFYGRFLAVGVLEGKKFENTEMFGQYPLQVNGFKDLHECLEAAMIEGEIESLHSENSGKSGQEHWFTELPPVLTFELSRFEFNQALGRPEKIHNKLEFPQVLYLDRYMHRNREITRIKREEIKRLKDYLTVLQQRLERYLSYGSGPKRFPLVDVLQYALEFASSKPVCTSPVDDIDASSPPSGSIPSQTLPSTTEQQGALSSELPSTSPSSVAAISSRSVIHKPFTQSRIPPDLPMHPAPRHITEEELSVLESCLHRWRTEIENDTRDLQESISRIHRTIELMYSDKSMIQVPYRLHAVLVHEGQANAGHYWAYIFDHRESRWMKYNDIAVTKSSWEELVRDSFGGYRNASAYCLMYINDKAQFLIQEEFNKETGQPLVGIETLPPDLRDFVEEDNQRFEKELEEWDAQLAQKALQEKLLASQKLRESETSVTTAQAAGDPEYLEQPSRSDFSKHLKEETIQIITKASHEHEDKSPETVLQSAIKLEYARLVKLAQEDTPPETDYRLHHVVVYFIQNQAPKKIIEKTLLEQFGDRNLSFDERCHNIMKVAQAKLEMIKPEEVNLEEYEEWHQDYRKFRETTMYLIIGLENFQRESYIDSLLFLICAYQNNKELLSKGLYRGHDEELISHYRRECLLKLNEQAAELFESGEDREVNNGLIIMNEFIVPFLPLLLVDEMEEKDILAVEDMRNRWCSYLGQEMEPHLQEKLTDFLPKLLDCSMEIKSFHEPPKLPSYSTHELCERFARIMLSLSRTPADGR
UniProt Q96RU2: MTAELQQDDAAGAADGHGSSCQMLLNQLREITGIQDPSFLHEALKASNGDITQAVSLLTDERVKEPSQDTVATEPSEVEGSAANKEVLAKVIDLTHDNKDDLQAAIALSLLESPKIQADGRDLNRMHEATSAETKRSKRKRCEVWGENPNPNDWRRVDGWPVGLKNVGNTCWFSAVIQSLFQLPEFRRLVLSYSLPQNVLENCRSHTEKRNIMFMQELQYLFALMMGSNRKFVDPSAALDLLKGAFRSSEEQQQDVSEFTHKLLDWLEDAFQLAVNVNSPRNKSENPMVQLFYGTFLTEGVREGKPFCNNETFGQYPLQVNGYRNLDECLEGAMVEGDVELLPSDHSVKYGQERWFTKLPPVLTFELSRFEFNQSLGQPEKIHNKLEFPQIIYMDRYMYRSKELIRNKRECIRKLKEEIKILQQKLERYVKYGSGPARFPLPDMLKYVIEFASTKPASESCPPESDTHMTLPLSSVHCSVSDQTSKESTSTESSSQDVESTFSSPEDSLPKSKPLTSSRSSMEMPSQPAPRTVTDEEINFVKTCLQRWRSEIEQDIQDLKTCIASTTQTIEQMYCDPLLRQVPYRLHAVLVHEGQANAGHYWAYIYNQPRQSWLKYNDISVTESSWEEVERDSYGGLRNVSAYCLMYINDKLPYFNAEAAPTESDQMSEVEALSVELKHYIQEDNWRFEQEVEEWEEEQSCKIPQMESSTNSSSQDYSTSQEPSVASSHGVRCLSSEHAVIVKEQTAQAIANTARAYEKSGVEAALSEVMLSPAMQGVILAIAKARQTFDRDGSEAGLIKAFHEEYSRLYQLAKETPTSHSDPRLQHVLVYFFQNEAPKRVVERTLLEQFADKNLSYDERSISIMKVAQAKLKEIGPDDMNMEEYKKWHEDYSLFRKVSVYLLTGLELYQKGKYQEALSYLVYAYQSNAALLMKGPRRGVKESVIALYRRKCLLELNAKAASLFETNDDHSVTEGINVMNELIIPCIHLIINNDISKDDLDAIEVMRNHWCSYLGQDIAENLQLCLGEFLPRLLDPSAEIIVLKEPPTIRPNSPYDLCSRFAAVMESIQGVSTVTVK

What was measured:
Test in all cases: co-IP; endogenous proteins from A-431 cells; RIPA lysate, beads coupled to USP25, USP28 or ∆Np63 antibodies, non-specific rabbit IgG as control; immunoblot
[1] = molecular target: T1, endogenous ∆Np63 (human (endogenous in A-431)) (UniProt Q9H3D4)
T1 sequence: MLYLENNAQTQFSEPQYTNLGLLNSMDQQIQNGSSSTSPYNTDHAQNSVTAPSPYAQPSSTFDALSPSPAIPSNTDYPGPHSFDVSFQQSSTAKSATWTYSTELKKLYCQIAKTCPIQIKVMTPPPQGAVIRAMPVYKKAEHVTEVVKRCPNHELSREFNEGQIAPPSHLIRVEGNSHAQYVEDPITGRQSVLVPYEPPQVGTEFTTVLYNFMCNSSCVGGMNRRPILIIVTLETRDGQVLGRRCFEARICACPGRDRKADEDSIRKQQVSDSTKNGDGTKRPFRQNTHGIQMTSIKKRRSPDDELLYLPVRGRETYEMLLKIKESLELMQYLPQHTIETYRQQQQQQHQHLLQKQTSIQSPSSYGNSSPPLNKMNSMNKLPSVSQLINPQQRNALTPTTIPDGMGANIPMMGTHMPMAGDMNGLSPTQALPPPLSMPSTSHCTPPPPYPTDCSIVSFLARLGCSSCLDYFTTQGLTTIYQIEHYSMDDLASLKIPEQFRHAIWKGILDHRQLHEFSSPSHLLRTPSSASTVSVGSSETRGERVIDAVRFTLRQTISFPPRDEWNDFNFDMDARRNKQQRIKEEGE

[2] = molecular target: endogenous USP25 (human (endogenous in A-431)) (UniProt Q9UHP3)
[3] = molecular target: endogenous USP28 (human (endogenous in A-431)) (UniProt Q96RU2)

For “endogenous USP25 (from UniProt Q9UHP3 1-1055) (enzyme)”, the binding [1] was “no binding”.

B1: endogenous ∆Np63 (protein, UniProt Q9H3D4-2 1-586)
chain: MLYLENNAQTQFSEPQYTNLGLLNSMDQQIQNGSSSTSPYNTDHAQNSVTAPSPYAQPSSTFDALSPSPAIPSNTDYPGPHSFDVSFQQSSTAKSATWTYSTELKKLYCQIAKTCPIQIKVMTPPPQGAVIRAMPVYKKAEHVTEVVKRCPNHELSREFNEGQIAPPSHLIRVEGNSHAQYVEDPITGRQSVLVPYEPPQVGTEFTTVLYNFMCNSSCVGGMNRRPILIIVTLETRDGQVLGRRCFEARICACPGRDRKADEDSIRKQQVSDSTKNGDGTKRPFRQNTHGIQMTSIKKRRSPDDELLYLPVRGRETYEMLLKIKESLELMQYLPQHTIETYRQQQQQQHQHLLQKQTSIQSPSSYGNSSPPLNKMNSMNKLPSVSQLINPQQRNALTPTTIPDGMGANIPMMGTHMPMAGDMNGLSPTQALPPPLSMPSTSHCTPPPPYPTDCSIVSFLARLGCSSCLDYFTTQGLTTIYQIEHYSMDDLASLKIPEQFRHAIWKGILDHRQLHEFSSPSHLLRTPSSASTVSVGSSETRGERVIDAVRFTLRQTISFPPRDEWNDFNFDMDARRNKQQRIKEEGE
B1 was tested, and the binding [2] was “no binding” and the binding [3] was “binds”.
